Results on two substances are retold here after publication PMC2211394.

By UniProt entry, the sequences of proteins in these tests, tags left out.
UniProt Q02248: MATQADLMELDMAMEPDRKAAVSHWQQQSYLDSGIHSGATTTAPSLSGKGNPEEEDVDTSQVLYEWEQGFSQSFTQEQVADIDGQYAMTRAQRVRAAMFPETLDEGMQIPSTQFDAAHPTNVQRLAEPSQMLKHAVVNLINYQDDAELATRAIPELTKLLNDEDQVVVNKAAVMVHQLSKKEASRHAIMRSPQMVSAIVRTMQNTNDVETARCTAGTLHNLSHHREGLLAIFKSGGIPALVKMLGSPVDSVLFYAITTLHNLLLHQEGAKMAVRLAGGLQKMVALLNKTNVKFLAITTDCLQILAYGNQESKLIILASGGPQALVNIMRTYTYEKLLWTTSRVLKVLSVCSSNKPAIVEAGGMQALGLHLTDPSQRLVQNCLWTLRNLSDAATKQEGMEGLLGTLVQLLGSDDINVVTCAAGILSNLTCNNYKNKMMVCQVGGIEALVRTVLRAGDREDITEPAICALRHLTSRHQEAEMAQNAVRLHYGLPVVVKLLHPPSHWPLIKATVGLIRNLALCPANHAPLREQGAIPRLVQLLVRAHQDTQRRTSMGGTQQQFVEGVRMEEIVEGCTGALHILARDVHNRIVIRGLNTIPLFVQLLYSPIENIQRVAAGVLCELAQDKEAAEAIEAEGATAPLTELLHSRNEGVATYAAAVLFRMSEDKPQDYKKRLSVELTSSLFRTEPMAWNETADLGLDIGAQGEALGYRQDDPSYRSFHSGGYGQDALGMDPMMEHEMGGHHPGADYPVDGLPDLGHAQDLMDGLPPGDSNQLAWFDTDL
UniProt P97474: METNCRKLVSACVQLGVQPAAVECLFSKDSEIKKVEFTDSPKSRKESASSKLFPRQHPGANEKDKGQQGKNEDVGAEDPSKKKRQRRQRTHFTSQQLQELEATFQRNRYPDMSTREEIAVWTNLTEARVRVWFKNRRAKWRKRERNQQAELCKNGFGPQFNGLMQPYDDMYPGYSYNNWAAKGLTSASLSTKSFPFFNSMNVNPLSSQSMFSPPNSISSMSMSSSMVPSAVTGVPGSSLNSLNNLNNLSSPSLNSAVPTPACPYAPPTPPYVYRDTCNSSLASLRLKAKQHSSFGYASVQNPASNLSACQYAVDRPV
UniProt O35160: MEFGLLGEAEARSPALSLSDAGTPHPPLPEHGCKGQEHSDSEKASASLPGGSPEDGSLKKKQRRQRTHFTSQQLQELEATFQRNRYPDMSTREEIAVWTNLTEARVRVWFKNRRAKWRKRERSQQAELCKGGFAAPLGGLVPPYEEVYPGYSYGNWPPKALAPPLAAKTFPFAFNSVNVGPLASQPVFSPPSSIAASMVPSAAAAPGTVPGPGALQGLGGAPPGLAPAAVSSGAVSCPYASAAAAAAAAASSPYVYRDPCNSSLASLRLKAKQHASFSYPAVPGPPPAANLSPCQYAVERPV

The target in this experiment is β-catenin (mouse (endogenous in primary E13.5 lung mesenchymal cells)) (UniProt Q02248). As to the kind of experiment: co-IP; lysates of primary culture of WT lung mesenchymal cells immunoprecipitated with β-catenin antibodies, western blot for PITX2 or PITX3; cultures grown with 10 mM LiCl (for PITX2) or serum starved (for PITX3). (In general: Immunoblotting shows a protein as a band on a membrane.)

No constants are given. Whether binding was seen depends on the method and setting. Binding seen in cells or lysates may run through a third protein. Some entries that bind do so weakly or less than the wild type.

Turning to PITX2 (from UniProt P97474 1-317), the binding result was “binds”.
For the substance PITX3 (from UniProt O35160 1-302), the binding result is recorded as “no binding”.
